Source: patent publication US10822535B2, “Modified acid compositions as alternatives to conventional acids in the oil and gas industry” (Fluid Energy Group Ltd., priority 2017, dated 2020)

How the values were obtained:
[1] = Corrosion testing of acid compositions on steel coupons; conditions: 1018 steel, 110° C., 6 hours, corrosion package none
[2] = Wormholing testing (matrix acidizing experiments)
[3] = optimal condition, Buijse and Glasbergen fit, Example 1 at 90% conc.

Cl [15% HCl, hydrochloric acid]
Corrosion Mils/yr [1]: 45436.180 Mils/yr | Corrosion lb/ft2 [1]: 1.273 lb/ft2 | Corrosion mm/year [1]: 1154.079 mm/year | Loss wt. [1]: 25.722 g | wormhole pattern at low injection rate ([2]; 0.8 ml/min (0.5 cm/min)): large-diameter wormhole | Pore Volume to Breakthrough ([2]; core IC1, acid injection rate 8 ml/min, interstitial velocity 4.53 cm/min): 0.60 | Pore Volume to Breakthrough ([2]; core IC2, acid injection rate 10 ml/min, interstitial velocity 6.39 cm/min): 0.52 | Pore Volume to Breakthrough ([2]; core IC3, acid injection rate 7 ml/min, interstitial velocity 4.97 cm/min): 0.60 | Pore Volume to Breakthrough ([2]; core IC5, acid injection rate 5 ml/min, interstitial velocity 3.47 cm/min): 0.51 | Pore Volume to Breakthrough ([2]; core IC6, acid injection rate 3 ml/min, interstitial velocity 2.10 cm/min): 0.47 | Pore Volume to Breakthrough ([2]; core IC16, acid injection rate 2 ml/min, interstitial velocity 1.56 cm/min): 0.64 | Pore Volume to Breakthrough ([2]; core IC18, acid injection rate 0.8 ml/min, interstitial velocity 0.62 cm/min): 2.93 | PVbt-optimal [2, 3]: 0.46 | Vi-opt [2, 3]: 1.97

Where a name gives a salt, the structure may show the parent alone.
